Measured values reported in the supplement of paper PMC10849652.
Some of the results follow.

The chains behind the UniProt entries cited, without tags or fusion partners. Where a name states a change or a piece, a line headed by the entry shows the natural chain unless it says otherwise.
UniProt P49790, whole entry, looked up: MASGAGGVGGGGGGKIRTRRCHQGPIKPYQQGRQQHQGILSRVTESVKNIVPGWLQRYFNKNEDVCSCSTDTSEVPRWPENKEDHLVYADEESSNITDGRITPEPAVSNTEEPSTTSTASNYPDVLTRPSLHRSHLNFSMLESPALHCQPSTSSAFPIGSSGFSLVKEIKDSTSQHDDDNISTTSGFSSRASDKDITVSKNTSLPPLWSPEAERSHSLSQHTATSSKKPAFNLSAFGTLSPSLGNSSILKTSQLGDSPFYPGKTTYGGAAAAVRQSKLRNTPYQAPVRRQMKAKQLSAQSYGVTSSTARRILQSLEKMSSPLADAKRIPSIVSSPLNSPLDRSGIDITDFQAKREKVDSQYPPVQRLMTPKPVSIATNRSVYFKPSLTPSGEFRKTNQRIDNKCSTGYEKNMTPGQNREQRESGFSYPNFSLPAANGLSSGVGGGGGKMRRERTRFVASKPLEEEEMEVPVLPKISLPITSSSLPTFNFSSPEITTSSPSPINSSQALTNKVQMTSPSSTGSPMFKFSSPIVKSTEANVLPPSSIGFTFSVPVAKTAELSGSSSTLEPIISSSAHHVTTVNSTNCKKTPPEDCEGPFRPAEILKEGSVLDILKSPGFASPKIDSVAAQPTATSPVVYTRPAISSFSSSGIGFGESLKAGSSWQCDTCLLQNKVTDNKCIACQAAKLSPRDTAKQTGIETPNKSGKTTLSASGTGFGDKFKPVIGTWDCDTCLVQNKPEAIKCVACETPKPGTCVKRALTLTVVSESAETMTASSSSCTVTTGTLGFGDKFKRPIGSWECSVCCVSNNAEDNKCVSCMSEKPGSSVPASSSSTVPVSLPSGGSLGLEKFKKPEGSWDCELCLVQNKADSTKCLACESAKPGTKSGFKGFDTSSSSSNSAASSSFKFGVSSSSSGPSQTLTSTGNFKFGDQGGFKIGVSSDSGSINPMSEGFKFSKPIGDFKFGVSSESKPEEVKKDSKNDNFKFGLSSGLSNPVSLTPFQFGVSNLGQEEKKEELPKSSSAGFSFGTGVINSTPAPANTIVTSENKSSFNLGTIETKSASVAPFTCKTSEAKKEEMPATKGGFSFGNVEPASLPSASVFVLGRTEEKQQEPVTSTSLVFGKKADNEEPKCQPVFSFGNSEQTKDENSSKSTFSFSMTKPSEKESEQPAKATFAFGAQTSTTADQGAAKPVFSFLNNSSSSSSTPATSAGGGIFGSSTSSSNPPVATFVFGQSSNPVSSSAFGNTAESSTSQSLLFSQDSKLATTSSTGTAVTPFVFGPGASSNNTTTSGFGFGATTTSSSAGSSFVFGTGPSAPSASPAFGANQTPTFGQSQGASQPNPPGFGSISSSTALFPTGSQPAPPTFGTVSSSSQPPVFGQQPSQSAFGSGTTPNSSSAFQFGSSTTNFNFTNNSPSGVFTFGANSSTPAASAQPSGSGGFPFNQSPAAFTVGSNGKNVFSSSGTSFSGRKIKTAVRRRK
UniProt Q96HP4: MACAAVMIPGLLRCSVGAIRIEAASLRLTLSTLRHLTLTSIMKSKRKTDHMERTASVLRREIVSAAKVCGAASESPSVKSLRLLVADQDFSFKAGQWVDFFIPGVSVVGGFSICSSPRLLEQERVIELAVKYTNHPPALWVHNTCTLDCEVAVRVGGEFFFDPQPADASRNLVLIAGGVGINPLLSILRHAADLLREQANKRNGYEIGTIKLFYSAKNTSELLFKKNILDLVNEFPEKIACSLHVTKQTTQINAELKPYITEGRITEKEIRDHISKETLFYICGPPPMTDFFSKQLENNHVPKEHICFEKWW
UniProt O14841: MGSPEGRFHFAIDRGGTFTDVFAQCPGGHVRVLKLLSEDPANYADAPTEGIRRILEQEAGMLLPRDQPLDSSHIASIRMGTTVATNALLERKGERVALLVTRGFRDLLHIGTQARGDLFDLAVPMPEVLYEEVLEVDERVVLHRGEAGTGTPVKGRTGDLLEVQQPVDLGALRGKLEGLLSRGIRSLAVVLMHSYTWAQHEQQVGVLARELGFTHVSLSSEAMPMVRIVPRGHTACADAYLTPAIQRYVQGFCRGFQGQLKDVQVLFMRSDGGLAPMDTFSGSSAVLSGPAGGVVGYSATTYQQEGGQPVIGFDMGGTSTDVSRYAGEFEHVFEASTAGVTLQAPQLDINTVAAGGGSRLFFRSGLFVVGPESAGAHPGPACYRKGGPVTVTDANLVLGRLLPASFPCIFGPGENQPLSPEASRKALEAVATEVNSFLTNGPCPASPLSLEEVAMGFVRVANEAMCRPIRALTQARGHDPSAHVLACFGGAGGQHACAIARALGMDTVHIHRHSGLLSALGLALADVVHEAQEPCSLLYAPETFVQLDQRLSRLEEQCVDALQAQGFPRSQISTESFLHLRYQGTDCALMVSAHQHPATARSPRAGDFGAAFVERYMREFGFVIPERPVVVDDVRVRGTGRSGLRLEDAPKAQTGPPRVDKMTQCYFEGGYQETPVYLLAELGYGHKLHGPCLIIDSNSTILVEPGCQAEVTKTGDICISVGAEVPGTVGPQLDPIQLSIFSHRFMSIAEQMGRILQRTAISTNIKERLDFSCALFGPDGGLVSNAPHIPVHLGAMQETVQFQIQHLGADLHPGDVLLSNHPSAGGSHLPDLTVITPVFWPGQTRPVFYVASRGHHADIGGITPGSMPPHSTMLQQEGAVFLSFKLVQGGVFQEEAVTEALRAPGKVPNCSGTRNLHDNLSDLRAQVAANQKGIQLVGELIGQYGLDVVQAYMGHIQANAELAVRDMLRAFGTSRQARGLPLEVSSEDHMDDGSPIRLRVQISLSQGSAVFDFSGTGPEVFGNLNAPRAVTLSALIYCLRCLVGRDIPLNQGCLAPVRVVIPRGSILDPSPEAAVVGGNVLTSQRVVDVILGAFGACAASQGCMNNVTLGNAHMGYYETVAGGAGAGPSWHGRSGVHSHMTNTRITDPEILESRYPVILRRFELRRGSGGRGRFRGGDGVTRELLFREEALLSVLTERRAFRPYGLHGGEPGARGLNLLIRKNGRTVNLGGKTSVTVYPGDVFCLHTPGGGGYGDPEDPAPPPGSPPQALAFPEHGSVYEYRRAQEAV
UniProt O75694: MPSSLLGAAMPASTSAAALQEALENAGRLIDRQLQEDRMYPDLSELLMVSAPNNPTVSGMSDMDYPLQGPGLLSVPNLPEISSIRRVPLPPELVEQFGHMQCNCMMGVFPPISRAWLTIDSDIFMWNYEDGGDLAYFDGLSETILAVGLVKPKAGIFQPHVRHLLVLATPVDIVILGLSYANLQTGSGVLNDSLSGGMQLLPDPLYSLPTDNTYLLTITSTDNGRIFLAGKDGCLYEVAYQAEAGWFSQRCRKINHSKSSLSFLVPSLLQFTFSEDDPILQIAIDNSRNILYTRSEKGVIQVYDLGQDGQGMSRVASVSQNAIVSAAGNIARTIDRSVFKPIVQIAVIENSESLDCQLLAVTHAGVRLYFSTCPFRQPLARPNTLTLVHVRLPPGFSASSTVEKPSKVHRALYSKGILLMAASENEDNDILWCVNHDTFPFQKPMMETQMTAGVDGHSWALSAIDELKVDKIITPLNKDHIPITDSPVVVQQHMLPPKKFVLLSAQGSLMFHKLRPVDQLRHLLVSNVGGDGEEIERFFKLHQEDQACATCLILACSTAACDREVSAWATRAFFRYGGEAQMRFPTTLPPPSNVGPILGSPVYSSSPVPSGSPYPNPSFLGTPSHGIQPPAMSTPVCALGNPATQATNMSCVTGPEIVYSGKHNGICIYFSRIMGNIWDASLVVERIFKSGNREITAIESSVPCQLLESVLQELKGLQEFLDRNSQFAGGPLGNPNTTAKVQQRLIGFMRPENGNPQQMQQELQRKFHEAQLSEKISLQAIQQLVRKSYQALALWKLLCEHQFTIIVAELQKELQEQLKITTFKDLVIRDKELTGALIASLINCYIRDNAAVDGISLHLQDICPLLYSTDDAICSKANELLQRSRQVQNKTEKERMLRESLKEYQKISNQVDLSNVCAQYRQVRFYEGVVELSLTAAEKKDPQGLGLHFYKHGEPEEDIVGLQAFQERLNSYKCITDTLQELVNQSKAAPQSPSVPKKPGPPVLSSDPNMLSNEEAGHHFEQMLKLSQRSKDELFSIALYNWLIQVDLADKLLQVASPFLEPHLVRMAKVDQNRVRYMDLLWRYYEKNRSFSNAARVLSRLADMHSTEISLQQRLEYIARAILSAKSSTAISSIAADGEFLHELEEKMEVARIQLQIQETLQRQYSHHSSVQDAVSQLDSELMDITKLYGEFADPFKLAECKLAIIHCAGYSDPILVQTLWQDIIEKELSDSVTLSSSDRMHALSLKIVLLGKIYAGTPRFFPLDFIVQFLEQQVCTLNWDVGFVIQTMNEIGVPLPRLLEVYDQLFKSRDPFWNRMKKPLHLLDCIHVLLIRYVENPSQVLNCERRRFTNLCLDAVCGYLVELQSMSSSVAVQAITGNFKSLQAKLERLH
UniProt Q9NX40: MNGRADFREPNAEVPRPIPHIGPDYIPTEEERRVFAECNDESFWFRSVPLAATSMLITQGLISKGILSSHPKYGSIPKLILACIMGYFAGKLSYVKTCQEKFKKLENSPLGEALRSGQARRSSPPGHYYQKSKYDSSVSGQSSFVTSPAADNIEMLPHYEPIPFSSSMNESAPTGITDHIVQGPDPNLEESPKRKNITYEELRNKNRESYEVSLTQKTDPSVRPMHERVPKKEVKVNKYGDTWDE
UniProt O43482, whole entry, looked up: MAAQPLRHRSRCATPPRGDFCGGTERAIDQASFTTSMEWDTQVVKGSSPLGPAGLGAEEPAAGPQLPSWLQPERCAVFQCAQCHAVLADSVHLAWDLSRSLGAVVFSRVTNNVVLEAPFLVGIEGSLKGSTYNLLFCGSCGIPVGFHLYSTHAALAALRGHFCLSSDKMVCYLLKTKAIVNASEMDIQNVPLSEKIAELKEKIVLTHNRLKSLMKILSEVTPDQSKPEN
UniProt Q02218: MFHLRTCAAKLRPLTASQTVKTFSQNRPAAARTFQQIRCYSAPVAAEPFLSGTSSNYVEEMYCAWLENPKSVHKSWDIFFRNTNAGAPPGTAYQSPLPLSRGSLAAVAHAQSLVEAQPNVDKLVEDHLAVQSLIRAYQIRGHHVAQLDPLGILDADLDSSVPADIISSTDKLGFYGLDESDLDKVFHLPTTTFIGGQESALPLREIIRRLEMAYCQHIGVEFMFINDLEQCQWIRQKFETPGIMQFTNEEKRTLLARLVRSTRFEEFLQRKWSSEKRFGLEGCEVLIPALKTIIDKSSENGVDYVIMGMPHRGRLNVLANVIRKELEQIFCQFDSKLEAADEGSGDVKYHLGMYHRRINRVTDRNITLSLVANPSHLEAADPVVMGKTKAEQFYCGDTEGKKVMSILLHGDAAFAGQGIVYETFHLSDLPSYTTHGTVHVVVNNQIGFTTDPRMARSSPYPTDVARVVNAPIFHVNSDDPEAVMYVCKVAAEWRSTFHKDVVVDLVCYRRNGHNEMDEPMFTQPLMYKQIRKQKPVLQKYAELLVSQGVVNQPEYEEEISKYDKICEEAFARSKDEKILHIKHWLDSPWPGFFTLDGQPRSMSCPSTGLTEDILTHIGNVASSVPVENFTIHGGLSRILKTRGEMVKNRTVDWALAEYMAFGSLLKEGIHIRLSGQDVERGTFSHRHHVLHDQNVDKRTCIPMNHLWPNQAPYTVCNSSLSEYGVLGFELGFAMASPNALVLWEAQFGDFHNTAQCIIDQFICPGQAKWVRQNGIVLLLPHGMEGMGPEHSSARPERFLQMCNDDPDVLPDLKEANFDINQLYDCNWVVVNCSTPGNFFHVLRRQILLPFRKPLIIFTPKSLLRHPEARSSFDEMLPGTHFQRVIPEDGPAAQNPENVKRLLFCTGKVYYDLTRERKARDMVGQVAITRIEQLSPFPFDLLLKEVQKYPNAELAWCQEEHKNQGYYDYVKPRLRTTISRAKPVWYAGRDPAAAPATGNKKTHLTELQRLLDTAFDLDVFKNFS
UniProt Q96E52: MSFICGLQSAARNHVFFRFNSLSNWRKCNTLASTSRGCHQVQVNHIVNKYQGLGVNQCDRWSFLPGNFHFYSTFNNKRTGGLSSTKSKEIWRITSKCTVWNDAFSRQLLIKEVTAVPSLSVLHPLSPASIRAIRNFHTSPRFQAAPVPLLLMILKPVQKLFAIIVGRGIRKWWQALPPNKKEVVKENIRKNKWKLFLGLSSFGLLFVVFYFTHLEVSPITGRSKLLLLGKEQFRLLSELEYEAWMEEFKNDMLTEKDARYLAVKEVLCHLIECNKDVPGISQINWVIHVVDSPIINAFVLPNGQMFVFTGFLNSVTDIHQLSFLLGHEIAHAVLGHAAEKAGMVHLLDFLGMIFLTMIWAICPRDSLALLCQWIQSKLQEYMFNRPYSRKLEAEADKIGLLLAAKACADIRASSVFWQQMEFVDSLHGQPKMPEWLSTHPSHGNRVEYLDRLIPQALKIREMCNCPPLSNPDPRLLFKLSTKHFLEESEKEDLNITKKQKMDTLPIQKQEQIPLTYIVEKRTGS

Columns and labels:
Assay in all cases: log2 fold change, soluble protein after heating vs DMSO (PISA); higher = thermal stabilisation; K562 cells, 10 uM, 30 min; active = over 0.2 and 3.5 SD of the protein, either way, in both replicates (recomputed)
saracatinib = compound: CN1CCN(CCOc2cc(OC3CCOCC3)c3c(Nc4c(Cl)ccc5c4OCO5)ncnc3c2)CC1 [saracatinib]
Method in brief: (§1)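 For each measurement, 10 μM compound was applied for 30 min to K562 cells at 2×10^6 cells/mL. Aliquots were heated for 3 min across 48°C-58°C, pooled, and extracted in PBS with 0.5% NP-40 at 4°C; the supernatant after 21,000xg for 90 min was soluble protein. This was quantified by TMTpro 16plex LC-MS/MS with channel sums equalised, and thermal stability was reported relative to control samples from duplicates, on a log2 fold-change scale.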

sotrastaurin = compound: CN1CCN(c2nc(C3=C(c4c[nH]c5ccccc45)C(=O)NC3=O)c3ccccc3n2)CC1 [sotrastaurin]
Method in brief: as §1

alvocidib = compound: CN1CC[C@H](c2c(O)cc(O)c3c(=O)cc(-c4ccccc4Cl)oc23)[C@H](O)C1 [alvocidib]
Method in brief: as §1

Tubastatin A = compound: CN1CCc2c(c3ccccc3n2Cc2ccc(C(=O)NO)cc2)C1 [Tubastatin A]
Method in brief: as §1

[1] = compound: CNC(=O)C1=CC=CC=C1NC2=NC(=NC=C2Cl)NC3=C(C=C(C=C3)N4CCOCC4)OC
Method in brief: as §1

defactinib = compound: CNC(=O)c1ccc(Nc2ncc(C(F)(F)F)c(NCc3nccnc3N(C)S(C)(=O)=O)n2)cc1 [defactinib]
Method in brief: as §1

rucaparib = compound: CNCc1ccc(-c2[nH]c3cc(F)cc4c3c2CCNC4=O)cc1 [rucaparib]
Method in brief: as §1

[2] = compound: CNc1nc(-c2ccc3c(N)n[nH]c3c2)cc(N2C[C@@H](C(=O)NC3CCCCC3)CC[C@H]2C)n1
Method in brief: as §1

encorafenib = compound: COC(=O)N[C@@H](C)CNc1nccc(-c2cn(C(C)C)nc2-c2cc(Cl)cc(NS(C)(=O)=O)c2F)n1 [encorafenib]
Method in brief: as §1

[3] = compound: COC(=O)[C@H](CCSC)NC(=O)C1=C(C=C(C=C1)NC[C@H](CS)N)C2=CC=CC=C2
Method in brief: as §1

[4] = compound: COC1=CC=C(C=C1)CN2C=CC3=C2C=C(C=C3)C(=O)NO
Method in brief: as §1

filanesib = compound: CON(C)C(=O)N1N=C(c2cc(F)ccc2F)S[C@@]1(CCCN)c1ccccc1 [filanesib]
Method in brief: as §1

zotarolimus = compound: CO[C@H]1C[C@@H]2CC[C@@H](C)[C@@](O)(O2)C(=O)C(=O)N2CCCC[C@H]2C(=O)O[C@H]([C@H](C)C[C@@H]2CC[C@H](n3cnnn3)[C@H](OC)C2)CC(=O)[C@H](C)/C=C(\C)[C@@H](O)[C@@H](OC)C(=O)[C@H](C)C[C@H](C)/C=C/C=C/C=C/1C [zotarolimus]
Method in brief: as §1

idasanutlin = compound: COc1cc(C(=O)O)ccc1NC(=O)[C@@H]1N[C@@H](CC(C)(C)C)[C@](C#N)(c2ccc(Cl)cc2F)[C@H]1c1cccc(Cl)c1F [idasanutlin]
Method in brief: as §1

alisertib = compound: COc1cc(Nc2ncc3c(n2)-c2ccc(Cl)cc2C(c2c(F)cccc2OC)=NC3)ccc1C(=O)O [alisertib]
Method in brief: as §1

[5] = compound: COc1cc2nc(-c3cc(F)ccc3O)nc(N[C@@H]3CNC[C@H]3C(C)(C)O)c2cc1OC
Method in brief: as §1

gefitinib = compound: COc1cc2ncnc(Nc3ccc(F)c(Cl)c3)c2cc1OCCCN1CCOCC1 [gefitinib]
Method in brief: as §1

[6] = compound: COc1cccc2cc(-c3nc([C@H]4CC[C@H](C(=O)O)CC4)n4ncnc(N)c34)[nH]c12
Method in brief: as §1

lapatinib = compound: CS(=O)(=O)CCNCc1ccc(-c2ccc3ncnc(Nc4ccc(OCc5cccc(F)c5)c(Cl)c4)c3c2)o1 [lapatinib]
Method in brief: as §1

pictilisib = compound: CS(=O)(=O)N1CCN(Cc2cc3nc(-c4cccc5[nH]ncc45)nc(N4CCOCC4)c3s2)CC1 [pictilisib]
Method in brief: as §1

Measured: log2 fold change

PAAT (UniProt Q9H8K7)
inactive: saracatinib 0.088 | sotrastaurin -0.024 | alvocidib -0.017 | Tubastatin A 0.025 | [1] -0.031 | defactinib -0.003 | rucaparib -0.188 | [2] -0.092 | encorafenib 0.047 | [3] 0.017 | [4] -0.161 | filanesib 0.029 | zotarolimus -0.054 | idasanutlin -0.014 | alisertib 0.113 | [5] -0.039 | gefitinib 0.121 | [6] 0.222 | lapatinib 0.091 | pictilisib 0.001

NUP153 (UniProt P49790)
inactive: saracatinib 0.059 | sotrastaurin -0.04 | alvocidib 0.025 | Tubastatin A -0.005 | [1] 0.012 | defactinib 0.002 | rucaparib 0.016 | [2] -0.07 | encorafenib 0.026 | [3] 0.052 | [4] 0.01 | filanesib 0.072 | zotarolimus -0.016 | idasanutlin 0.124 | alisertib -0.043 | [5] -0.05 | gefitinib -0.01 | [6] 0.06 | lapatinib 0.008 | pictilisib -0.075

OSTF1 (UniProt Q92882)
inactive: saracatinib 0.015 | sotrastaurin 0.033 | alvocidib -0.006 | Tubastatin A 0.024 | [1] 0.024 | defactinib -0.099 | rucaparib -0.077 | [2] -0.044 | encorafenib -0.018 | [3] -0.15 | [4] 0.116 | filanesib 0.048 | zotarolimus -0.031 | idasanutlin -0.071 | alisertib -0.04 | [5] 0.061 | gefitinib 0.063 | [6] -0.005 | lapatinib 0.113 | pictilisib 0.113

PABPC1 (UniProt P11940)
inactive: saracatinib -0.002 | sotrastaurin 0.016 | alvocidib 0.111 | Tubastatin A 0.002 | [1] 0.043 | defactinib 0.098 | rucaparib 0.197 | [2] -0.028 | encorafenib -0.032 | [3] 0.063 | [4] -0.025 | filanesib 0.07 | zotarolimus -0.048 | idasanutlin 0.076 | alisertib -0.066 | [5] -0.008 | gefitinib -0.045 | [6] -0.105 | lapatinib 0.014 | pictilisib -0.109

NUDCD1 (UniProt Q96RS6)
inactive: saracatinib 0.011 | sotrastaurin -0.026 | alvocidib -0.097 | Tubastatin A -0.023 | [1] 0.014 | defactinib -0.079 | rucaparib -0.047 | [2] -0.036 | encorafenib 0.008 | [3] -0.008 | [4] 0 | filanesib -0.091 | zotarolimus 0.006 | idasanutlin -0.042 | alisertib -0.073 | [5] -0.005 | gefitinib 0.004 | [6] 0.012 | lapatinib -0.006 | pictilisib 0.047

NUP37 (UniProt Q8NFH4)
inactive: saracatinib -0.04 | sotrastaurin -0.028 | alvocidib -0.021 | Tubastatin A -0.019 | [1] 0.074 | defactinib -0.046 | rucaparib -0.03 | [2] -0.072 | encorafenib 0.026 | [3] 0.003 | [4] 0.009 | filanesib -0.001 | zotarolimus -0.023 | idasanutlin -0.019 | alisertib 0.033 | [5] 0.006 | gefitinib -0.012 | [6] 0.023 | lapatinib -0.022 | pictilisib 0.006

OXNAD1 (UniProt Q96HP4)
inactive: saracatinib 0.025 | sotrastaurin 0.02 | alvocidib -0.024 | Tubastatin A -0.014 | [1] -0.015 | defactinib 0.025 | rucaparib -0.036 | [2] 0 | encorafenib -0.016 | [3] -0.007 | [4] -0.001 | filanesib 0.019 | zotarolimus 0.05 | idasanutlin -0.04 | alisertib -0.016 | [5] 0.109 | gefitinib 0.051 | [6] 0.026 | lapatinib 0.007 | pictilisib 0.065

OPLAH (UniProt O14841)
inactive: saracatinib 0.006 | sotrastaurin 0.037 | alvocidib -0.039 | Tubastatin A -0.009 | [1] -0.01 | defactinib -0.005 | rucaparib 0.012 | [2] -0.026 | encorafenib -0.02 | [3] 0.006 | [4] 0.017 | filanesib -0.006 | zotarolimus 0.019 | idasanutlin -0.041 | alisertib -0.062 | [5] 0.044 | gefitinib 0.002 | [6] 0.043 | lapatinib -0.032 | pictilisib 0.022

NUP155 (UniProt O75694)
inactive: saracatinib -0.055 | sotrastaurin -0.008 | alvocidib -0.068 | Tubastatin A 0.012 | [1] -0.029 | defactinib -0.057 | rucaparib -0.003 | [2] 0.02 | encorafenib 0.084 | [3] -0.053 | [4] 0.179 | filanesib -0.122 | zotarolimus 0.02 | idasanutlin -0.085 | alisertib -0.018 | [5] -0.049 | gefitinib 0.013 | [6] 0 | lapatinib 0.007 | pictilisib -0.059

Pulled one by one from the entries so far (2):
NUP37 (UniProt Q8NFH4)
inactive: saracatinib -0.04 | sotrastaurin -0.028 | alvocidib -0.021 | Tubastatin A -0.019 | [1] 0.074 | defactinib -0.046 | rucaparib -0.03 | [2] -0.072 | encorafenib 0.026 | [3] 0.003 | [4] 0.009 | filanesib -0.001 | zotarolimus -0.023 | idasanutlin -0.019 | alisertib 0.033 | [5] 0.006 | gefitinib -0.012 | [6] 0.023 | lapatinib -0.022 | pictilisib 0.006

OXNAD1 (UniProt Q96HP4)
inactive: saracatinib 0.025 | sotrastaurin 0.02 | alvocidib -0.024 | Tubastatin A -0.014 | [1] -0.015 | defactinib 0.025 | rucaparib -0.036 | [2] 0 | encorafenib -0.016 | [3] -0.007 | [4] -0.001 | filanesib 0.019 | zotarolimus 0.05 | idasanutlin -0.04 | alisertib -0.016 | [5] 0.109 | gefitinib 0.051 | [6] 0.026 | lapatinib 0.007 | pictilisib 0.065

Additional records

OCIAD1 (UniProt Q9NX40)
inactive: saracatinib 0.04 | sotrastaurin 0.031 | alvocidib -0.049 | Tubastatin A -0.009 | [1] -0.008 | defactinib -0.047 | rucaparib -0.055 | [2] -0.03 | encorafenib -0.034 | [3] 0.032 | [4] 0.054 | filanesib -0.047 | zotarolimus 0.041 | idasanutlin 0.031 | alisertib -0.027 | [5] -0.1 | gefitinib 0.005 | [6] 0.041 | lapatinib -0.031 | pictilisib 0.084

OIP5 (UniProt O43482)
inactive: saracatinib 0.008 | sotrastaurin 0.047 | alvocidib -0.162 | Tubastatin A -0.005 | [1] -0.006 | defactinib -0.037 | rucaparib -0.024 | [2] -0.027 | encorafenib 0.015 | [3] 0.048 | [4] 0.109 | filanesib 0.018 | zotarolimus 0.058 | idasanutlin -0.069 | alisertib 0.022 | [5] -0.029 | gefitinib -0.051 | [6] -0.005 | lapatinib 0.002 | pictilisib 0.116

OGDH (UniProt Q02218)
inactive: saracatinib -0.135 | sotrastaurin -0.087 | alvocidib 0.039 | Tubastatin A 0.1 | [1] -0.034 | defactinib 0.051 | rucaparib 0.075 | [2] 0.151 | encorafenib 0.02 | [3] -0.019 | [4] 0.101 | filanesib 0.017 | zotarolimus 0.058 | idasanutlin -0.185 | alisertib -0.071 | [5] -0.027 | gefitinib -0.033 | [6] -0.089 | lapatinib 0.132 | pictilisib -0.016

OMA1 (UniProt Q96E52)
inactive: saracatinib 0.04 | sotrastaurin 0.048 | alvocidib 0.015 | Tubastatin A 0.081 | [1] -0.075 | defactinib -0.017 | rucaparib -0.044 | [2] -0.005 | encorafenib 0.032 | [3] 0.033 | [4] 0.087 | filanesib -0.046 | zotarolimus -0.019 | idasanutlin -0.046 | alisertib -0.064 | [5] -0.101 | gefitinib -0.009 | [6] -0.033 | lapatinib -0.007 | pictilisib 0.126

NUCB1 (UniProt Q02818)
inactive: saracatinib 0.026 | sotrastaurin 0.045 | alvocidib 0.005 | Tubastatin A -0.006 | [1] 0.019 | defactinib -0.006 | rucaparib -0.049 | [2] -0.023 | encorafenib -0.028 | [3] 0.039 | [4] -0.025 | filanesib -0.032 | zotarolimus -0.033 | idasanutlin 0.005 | alisertib -0.046 | [5] -0.02 | gefitinib -0.007 | [6] 0.013 | lapatinib 0.01 | pictilisib -0.032

OGT (UniProt O15294)
inactive: saracatinib -0.054 | sotrastaurin -0.105 | alvocidib -0.086 | Tubastatin A -0.001 | [1] -0.032 | defactinib -0.098 | rucaparib 0.054 | [2] 0.01 | encorafenib 0.096 | [3] -0.046 | [4] -0.006 | filanesib -0.01 | zotarolimus 0.038 | idasanutlin -0.01 | alisertib 0.002 | [5] 0.059 | gefitinib 0.004 | [6] -0.022 | lapatinib -0.022 | pictilisib -0.012

NSUN6 (UniProt Q8TEA1)
inactive: saracatinib -0.005 | sotrastaurin 0.018 | alvocidib -0.016 | Tubastatin A -0.041 | [1] -0.027 | defactinib -0.052 | rucaparib -0.042 | [2] 0.006 | encorafenib 0.016 | [3] 0.015 | [4] -0.122 | filanesib -0.054 | zotarolimus 0.007 | idasanutlin -0.016 | alisertib -0.012 | [5] -0.082 | gefitinib 0.046 | [6] 0.025 | lapatinib 0.003 | pictilisib 0.046
